Source: the supplement of paper PMC10849652
The list shows a part of the results.

Amino acid sequences for entries named in this document (tags omitted). A change or cut given only in a name is not applied to a line headed by its entry.
UniProt Q9ULP9: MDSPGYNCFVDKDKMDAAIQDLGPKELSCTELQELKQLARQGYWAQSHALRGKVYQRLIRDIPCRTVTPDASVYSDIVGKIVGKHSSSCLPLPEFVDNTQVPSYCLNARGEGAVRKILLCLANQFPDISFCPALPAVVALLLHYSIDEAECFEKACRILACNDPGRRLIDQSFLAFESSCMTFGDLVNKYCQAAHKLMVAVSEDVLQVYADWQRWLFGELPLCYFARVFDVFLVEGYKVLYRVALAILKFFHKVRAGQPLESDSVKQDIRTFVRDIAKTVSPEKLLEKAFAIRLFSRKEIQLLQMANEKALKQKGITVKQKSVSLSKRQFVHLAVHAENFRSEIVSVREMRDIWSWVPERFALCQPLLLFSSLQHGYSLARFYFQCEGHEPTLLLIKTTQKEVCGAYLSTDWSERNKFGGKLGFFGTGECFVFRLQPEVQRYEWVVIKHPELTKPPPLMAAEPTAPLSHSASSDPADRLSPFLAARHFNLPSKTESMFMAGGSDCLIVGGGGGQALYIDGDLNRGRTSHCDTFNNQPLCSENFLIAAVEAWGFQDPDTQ
UniProt O60343: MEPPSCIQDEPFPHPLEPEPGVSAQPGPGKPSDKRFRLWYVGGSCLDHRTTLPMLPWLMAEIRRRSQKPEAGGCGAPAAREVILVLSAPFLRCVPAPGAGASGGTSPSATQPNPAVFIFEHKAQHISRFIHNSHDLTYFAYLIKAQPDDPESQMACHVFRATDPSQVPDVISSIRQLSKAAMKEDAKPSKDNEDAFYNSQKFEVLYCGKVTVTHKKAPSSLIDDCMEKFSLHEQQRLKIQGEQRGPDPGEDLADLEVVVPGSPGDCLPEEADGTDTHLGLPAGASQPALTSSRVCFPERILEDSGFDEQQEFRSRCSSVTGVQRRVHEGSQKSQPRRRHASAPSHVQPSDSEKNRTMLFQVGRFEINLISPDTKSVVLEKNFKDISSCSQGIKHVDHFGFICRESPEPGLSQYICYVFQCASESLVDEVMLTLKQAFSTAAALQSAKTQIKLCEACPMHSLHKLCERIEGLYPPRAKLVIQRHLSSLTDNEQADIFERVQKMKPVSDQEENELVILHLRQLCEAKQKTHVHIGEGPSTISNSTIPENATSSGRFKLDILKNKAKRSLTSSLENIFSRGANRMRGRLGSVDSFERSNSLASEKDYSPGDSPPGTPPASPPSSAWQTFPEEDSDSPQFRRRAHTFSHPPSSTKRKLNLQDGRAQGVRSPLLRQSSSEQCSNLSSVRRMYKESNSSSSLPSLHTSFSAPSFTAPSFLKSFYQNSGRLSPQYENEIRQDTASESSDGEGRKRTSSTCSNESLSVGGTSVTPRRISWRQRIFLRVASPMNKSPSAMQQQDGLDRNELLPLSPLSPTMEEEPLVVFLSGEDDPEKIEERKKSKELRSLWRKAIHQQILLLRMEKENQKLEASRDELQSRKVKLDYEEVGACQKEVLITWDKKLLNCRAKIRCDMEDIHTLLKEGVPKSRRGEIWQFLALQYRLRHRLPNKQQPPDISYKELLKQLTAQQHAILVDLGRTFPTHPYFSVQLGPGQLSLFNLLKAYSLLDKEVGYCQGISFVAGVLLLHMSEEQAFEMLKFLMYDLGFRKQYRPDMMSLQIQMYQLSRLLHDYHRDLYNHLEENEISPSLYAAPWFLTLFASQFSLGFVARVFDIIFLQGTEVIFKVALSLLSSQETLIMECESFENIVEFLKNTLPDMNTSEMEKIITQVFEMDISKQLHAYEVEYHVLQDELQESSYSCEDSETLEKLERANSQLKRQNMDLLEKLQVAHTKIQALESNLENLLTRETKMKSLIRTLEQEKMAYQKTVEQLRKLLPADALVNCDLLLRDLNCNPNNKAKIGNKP
UniProt P19532: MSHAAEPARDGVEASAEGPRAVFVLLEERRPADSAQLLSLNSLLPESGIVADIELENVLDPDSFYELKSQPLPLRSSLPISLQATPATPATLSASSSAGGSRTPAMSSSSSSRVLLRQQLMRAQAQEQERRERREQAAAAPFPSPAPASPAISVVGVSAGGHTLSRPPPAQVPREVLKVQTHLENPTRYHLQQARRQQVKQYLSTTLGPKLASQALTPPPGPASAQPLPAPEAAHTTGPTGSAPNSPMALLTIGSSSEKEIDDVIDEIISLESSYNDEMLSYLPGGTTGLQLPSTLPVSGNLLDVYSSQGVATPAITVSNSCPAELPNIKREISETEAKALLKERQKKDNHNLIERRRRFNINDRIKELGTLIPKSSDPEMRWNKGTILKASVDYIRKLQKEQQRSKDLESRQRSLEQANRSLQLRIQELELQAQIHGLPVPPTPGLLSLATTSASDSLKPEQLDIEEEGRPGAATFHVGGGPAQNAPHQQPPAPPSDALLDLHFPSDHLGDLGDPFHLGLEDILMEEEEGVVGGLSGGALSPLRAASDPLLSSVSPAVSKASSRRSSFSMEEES
UniProt P62380: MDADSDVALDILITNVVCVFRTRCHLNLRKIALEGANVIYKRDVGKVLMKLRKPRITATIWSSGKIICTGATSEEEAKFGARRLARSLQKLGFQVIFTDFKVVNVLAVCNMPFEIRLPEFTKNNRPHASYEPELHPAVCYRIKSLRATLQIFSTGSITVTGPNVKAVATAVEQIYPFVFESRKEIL
UniProt Q96BW9: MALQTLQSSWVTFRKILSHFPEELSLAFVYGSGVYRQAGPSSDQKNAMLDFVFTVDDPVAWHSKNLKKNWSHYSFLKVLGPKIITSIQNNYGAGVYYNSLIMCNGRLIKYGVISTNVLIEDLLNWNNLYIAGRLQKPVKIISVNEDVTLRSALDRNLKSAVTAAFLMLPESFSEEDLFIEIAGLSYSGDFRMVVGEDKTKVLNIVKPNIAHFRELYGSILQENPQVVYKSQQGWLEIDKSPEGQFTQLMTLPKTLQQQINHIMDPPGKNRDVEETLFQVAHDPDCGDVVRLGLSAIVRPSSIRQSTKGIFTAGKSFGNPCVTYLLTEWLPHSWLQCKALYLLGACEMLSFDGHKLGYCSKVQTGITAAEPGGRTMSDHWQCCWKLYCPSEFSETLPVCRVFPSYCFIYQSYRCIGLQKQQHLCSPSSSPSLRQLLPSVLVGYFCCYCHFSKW
UniProt Q8WVM0: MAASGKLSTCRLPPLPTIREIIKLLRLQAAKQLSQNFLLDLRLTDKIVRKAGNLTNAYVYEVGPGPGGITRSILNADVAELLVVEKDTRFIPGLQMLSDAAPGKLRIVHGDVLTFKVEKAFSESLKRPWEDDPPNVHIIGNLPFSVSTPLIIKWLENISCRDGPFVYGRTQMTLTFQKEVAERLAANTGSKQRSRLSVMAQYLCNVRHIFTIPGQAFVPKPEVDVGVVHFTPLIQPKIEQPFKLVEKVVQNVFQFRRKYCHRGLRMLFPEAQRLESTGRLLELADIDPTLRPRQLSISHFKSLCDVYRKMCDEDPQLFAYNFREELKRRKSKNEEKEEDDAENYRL
UniProt Q9P0N9: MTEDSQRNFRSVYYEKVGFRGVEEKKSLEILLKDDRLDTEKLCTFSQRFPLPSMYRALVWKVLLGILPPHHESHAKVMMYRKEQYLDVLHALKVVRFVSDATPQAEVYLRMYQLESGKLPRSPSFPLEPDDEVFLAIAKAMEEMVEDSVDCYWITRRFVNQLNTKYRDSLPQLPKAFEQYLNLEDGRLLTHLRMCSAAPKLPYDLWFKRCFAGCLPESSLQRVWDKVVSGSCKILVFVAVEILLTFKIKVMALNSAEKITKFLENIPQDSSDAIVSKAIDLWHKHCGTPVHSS
UniProt Q99426: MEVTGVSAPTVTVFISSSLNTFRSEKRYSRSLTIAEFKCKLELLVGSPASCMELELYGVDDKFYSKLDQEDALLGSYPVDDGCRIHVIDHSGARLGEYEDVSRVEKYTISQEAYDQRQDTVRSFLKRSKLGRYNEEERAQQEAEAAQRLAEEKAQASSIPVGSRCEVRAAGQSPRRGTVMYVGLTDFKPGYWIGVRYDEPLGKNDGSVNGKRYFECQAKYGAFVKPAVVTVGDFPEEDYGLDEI
UniProt Q9H5Q4: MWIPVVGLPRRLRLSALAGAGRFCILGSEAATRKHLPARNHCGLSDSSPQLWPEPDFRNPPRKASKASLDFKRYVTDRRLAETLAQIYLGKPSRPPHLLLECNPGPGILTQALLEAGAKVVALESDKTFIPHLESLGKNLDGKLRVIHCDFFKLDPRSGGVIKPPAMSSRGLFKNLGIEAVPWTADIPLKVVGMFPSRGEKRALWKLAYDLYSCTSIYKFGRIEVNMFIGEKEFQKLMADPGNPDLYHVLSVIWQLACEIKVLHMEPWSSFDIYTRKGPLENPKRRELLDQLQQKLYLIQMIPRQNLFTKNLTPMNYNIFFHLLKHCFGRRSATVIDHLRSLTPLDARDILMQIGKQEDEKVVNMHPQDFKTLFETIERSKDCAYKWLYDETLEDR
UniProt Q15633: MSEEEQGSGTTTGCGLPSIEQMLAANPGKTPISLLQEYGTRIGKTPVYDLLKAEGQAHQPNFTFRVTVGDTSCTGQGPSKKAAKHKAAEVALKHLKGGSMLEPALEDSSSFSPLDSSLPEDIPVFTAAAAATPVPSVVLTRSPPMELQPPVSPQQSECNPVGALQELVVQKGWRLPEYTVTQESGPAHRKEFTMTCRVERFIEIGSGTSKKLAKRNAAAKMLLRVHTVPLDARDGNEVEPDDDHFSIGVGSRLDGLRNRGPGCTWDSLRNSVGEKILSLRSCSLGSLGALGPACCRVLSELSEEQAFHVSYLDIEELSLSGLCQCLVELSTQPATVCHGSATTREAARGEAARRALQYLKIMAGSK
UniProt Q8NHU6: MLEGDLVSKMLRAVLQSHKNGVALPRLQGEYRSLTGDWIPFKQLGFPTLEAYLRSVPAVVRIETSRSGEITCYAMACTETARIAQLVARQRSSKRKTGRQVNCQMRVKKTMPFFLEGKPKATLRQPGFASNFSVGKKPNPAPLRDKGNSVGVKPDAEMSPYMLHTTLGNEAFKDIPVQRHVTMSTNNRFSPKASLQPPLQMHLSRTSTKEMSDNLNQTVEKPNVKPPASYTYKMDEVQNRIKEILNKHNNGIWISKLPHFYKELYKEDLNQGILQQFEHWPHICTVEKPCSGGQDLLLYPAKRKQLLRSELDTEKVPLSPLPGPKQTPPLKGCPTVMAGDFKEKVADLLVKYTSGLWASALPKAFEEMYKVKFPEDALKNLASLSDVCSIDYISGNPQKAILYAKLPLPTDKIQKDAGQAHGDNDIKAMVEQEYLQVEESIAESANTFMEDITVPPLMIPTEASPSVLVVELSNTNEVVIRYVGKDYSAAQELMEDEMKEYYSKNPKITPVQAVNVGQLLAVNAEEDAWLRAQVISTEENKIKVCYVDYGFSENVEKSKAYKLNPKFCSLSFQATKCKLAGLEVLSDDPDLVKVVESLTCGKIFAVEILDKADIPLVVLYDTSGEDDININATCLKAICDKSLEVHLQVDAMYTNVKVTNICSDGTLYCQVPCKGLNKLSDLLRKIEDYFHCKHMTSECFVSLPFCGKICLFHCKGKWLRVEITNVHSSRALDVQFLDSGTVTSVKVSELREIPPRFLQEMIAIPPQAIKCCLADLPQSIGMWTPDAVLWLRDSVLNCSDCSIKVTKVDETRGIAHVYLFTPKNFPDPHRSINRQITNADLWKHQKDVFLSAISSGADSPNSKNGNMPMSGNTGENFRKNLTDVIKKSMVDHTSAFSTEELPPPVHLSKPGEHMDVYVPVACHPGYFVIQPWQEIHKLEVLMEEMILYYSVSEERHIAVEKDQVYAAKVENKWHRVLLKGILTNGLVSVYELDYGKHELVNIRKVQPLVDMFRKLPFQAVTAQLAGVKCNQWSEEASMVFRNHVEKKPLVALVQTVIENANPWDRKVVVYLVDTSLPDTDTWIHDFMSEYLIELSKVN
UniProt Q9Y4P3: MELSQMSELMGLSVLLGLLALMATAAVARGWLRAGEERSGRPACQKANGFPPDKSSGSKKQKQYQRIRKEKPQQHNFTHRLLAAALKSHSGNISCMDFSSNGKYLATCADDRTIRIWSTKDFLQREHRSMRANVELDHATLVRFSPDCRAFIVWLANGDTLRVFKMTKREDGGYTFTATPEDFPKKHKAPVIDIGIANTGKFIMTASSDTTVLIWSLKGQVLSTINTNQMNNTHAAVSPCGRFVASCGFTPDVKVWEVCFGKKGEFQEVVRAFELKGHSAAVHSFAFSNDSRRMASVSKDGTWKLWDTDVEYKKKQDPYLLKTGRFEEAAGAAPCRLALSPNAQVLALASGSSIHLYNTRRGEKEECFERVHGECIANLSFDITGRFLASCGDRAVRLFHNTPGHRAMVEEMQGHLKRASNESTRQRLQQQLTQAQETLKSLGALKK

Experiments:
Test in all cases: log2 fold change, soluble protein after heating vs DMSO (PISA); higher = thermal stabilisation; K562 lysate, 10 uM; active = over 0.2 and 3.5 SD of the protein, either way, in both replicates (recomputed)
lapatinib = compound: CS(=O)(=O)CCNCc1ccc(-c2ccc3ncnc(Nc4ccc(OCc5cccc(F)c5)c(Cl)c4)c3c2)o1 [lapatinib]
Summary of the method: (§1)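 To prepare the extract, K562 pellets were dounce-homogenised in PBS pH 7.4 with 1 mM MgCl2, giving crude material at 1 mg/mL protein. This was treated with 10 μM compound for 30 min, then heated in aliquots for 3 min over 48°C-58°C before pooling and addition of NP-40 to 0.5% at 4°C. Centrifugation at 21,000xg for 90 min left soluble protein in the supernatant, which TMTpro 16plex LC-MS/MS quantified with equalised channel sums. Results are log-two fold changes in thermal stability compared with solvent controls, from duplicates.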

pictilisib = compound: CS(=O)(=O)N1CCN(Cc2cc3nc(-c4cccc5[nH]ncc45)nc(N4CCOCC4)c3s2)CC1 [pictilisib]
Summary of the method: as §1

crizotinib = compound: C[C@@H](Oc1cc(-c2cnn(C3CCNCC3)c2)cnc1N)c1c(Cl)ccc(F)c1Cl [crizotinib]
Summary of the method: as §1

[1] = compound: C[C@H](C1=CC=C(C=C1)C(=O)NC2=C3C=CNC3=NC=C2)N
Summary of the method: as §1

duvelisib = compound: C[C@H](Nc1ncnc2nc[nH]c12)c1cc2cccc(Cl)c2c(=O)n1-c1ccccc1 [duvelisib]
Summary of the method: as §1

gandotinib = compound: Cc1cc(Nc2cc(CN3CCOCC3)c3nc(C)c(Cc4ccc(Cl)cc4F)n3n2)n[nH]1 [gandotinib]
Summary of the method: as §1

tozasertib = compound: Cc1cc(Nc2cc(N3CCN(C)CC3)nc(Sc3ccc(NC(=O)C4CC4)cc3)n2)n[nH]1 [tozasertib]
Summary of the method: as §1

doramapimod = compound: Cc1ccc(-n2nc(C(C)(C)C)cc2NC(=O)Nc2ccc(OCCN3CCOCC3)c3ccccc23)cc1 [doramapimod]
Summary of the method: as §1

bafetinib = compound: Cc1ccc(NC(=O)c2ccc(CN3CC[C@H](N(C)C)C3)c(C(F)(F)F)c2)cc1Nc1nccc(-c2cncnc2)n1 [bafetinib]
Summary of the method: as §1

[2] = compound: Cc1cccc(CC(=O)N2CCc3c2ccc(-c2cn(C)c4ncnc(N)c24)c3F)n1
Summary of the method: as §1

nilotinib = compound: Cc1cn(-c2cc(NC(=O)c3ccc(C)c(Nc4nccc(-c5cccnc5)n4)c3)cc(C(F)(F)F)c2)cn1 [nilotinib]
Summary of the method: as §1

[3] = compound: Cc1nc(Nc2n[nH]c3c2CN(C(=O)N[C@H](CN(C)C)c2ccccc2)C3(C)C)c2sccc2n1
Summary of the method: as §1

dasatinib = compound: Cc1nc(Nc2ncc(C(=O)Nc3c(C)cccc3Cl)s2)cc(N2CCN(CCO)CC2)n1 [dasatinib]
Summary of the method: as §1

[4] = compound: Cc1ncc(-c2ccnc(Nc3ccc(S(C)(=O)=O)cc3)n2)n1C(C)C
Summary of the method: as §1

[5] = compound: Cn1cc(-c2ccc3c(c2)CCN3C(=O)Cc2cccc(C(F)(F)F)c2)c2c(N)ncnc21
Summary of the method: as §1

quisinostat = compound: Cn1cc(CNCC2CCN(c3ncc(C(=O)NO)cn3)CC2)c2ccccc21 [quisinostat]
Summary of the method: as §1

tipifarnib = compound: Cn1cncc1[C@@](N)(c1ccc(Cl)cc1)c1ccc2c(c1)c(-c1cccc(Cl)c1)cc(=O)n2C [tipifarnib]
Summary of the method: as §1

[6] = compound: NC(=O)Nc1cc(-c2cccc(F)c2)sc1C(=O)N[C@H]1CCCNC1
Summary of the method: as §1

[7] = compound: NC(=O)c1cnc(N[C@@H]2CCCC[C@@H]2N)nc1Nc1cccc(-n2nccn2)c1
Summary of the method: as §1

[8] = compound: NC1(c2ccc(-c3nc4ccn5c(=O)[nH]nc5c4cc3-c3ccccc3)cc2)CCC1
Summary of the method: as §1

Measured: log2 fold change

TBC1D24 (UniProt Q9ULP9)
inactive: lapatinib -0.05 | pictilisib 0.04 | crizotinib -0.147 | [1] -0.033 | duvelisib -0.065 | gandotinib -0.049 | tozasertib 0.016 | doramapimod 0.033 | bafetinib -0.039 | [2] 0.003 | nilotinib -0.021 | [3] 0.031 | dasatinib -0.098 | [4] -0.007 | [5] 0.006 | quisinostat -0.068 | tipifarnib -0.038 | [6] 0.056 | [7] 0 | [8] -0.05

TBC1D4 (UniProt O60343)
inactive: lapatinib 0.003 | pictilisib -0.064 | crizotinib 0.016 | [1] -0.028 | duvelisib 0.005 | gandotinib 0.003 | tozasertib 0.051 | doramapimod 0.002 | bafetinib -0.007 | [2] 0.025 | nilotinib -0.035 | [3] 0.031 | dasatinib -0.005 | [4] -0.016 | [5] 0.005 | quisinostat 0.039 | tipifarnib -0.005 | [6] -0.012 | [7] 0.025 | [8] -0.01

TFE3 (UniProt P19532)
inactive: lapatinib 0.004 | pictilisib -0.042 | crizotinib 0.134 | [1] -0.072 | duvelisib -0.091 | gandotinib 0.051 | tozasertib -0.068 | doramapimod 0.121 | bafetinib 0.049 | [2] 0.016 | nilotinib 0.002 | [3] -0.012 | dasatinib -0.034 | [4] -0.014 | [5] 0.02 | quisinostat 0.092 | tipifarnib -0.028 | [6] 0.051 | [7] -0.029 | [8] 0.004

TBPL1 (UniProt P62380)
inactive: lapatinib -0.014 | pictilisib 0.031 | crizotinib -0.022 | [1] -0.07 | duvelisib -0.001 | gandotinib 0.07 | tozasertib 0.116 | doramapimod -0.024 | bafetinib -0.012 | [2] 0.01 | nilotinib 0.061 | [3] -0.026 | dasatinib 0.014 | [4] -0.004 | [5] -0.071 | quisinostat -0.002 | tipifarnib -0.001 | [6] 0.059 | [7] -0.05 | [8] -0.038

TAMM41 isoform 3 (UniProt Q96BW9)
inactive: lapatinib 0.048 | pictilisib 0.125 | crizotinib -0.013 | [1] 0.005 | duvelisib 0.014 | gandotinib -0.026 | tozasertib -0.038 | doramapimod -0.044 | bafetinib -0.095 | [2] -0.013 | nilotinib -0.032 | [3] 0.016 | dasatinib 0.04 | [4] 0.005 | [5] -0.018 | quisinostat 0.056 | tipifarnib -0.008 | [6] 0.069 | [7] -0.047 | [8] -0.005

TFB1M (UniProt Q8WVM0)
inactive: lapatinib -0.051 | pictilisib 0.003 | crizotinib 0.017 | [1] -0.032 | duvelisib -0.025 | gandotinib -0.066 | tozasertib 0.003 | doramapimod 0 | bafetinib 0.055 | [2] 0.019 | nilotinib -0.011 | [3] -0.032 | dasatinib -0.024 | [4] 0.02 | [5] 0.004 | quisinostat 0.007 | tipifarnib -0.007 | [6] -0.006 | [7] 0.042 | [8] 0.078

TARS1 (UniProt P26639)
inactive: lapatinib -0.003 | pictilisib -0.014 | crizotinib 0.002 | [1] -0.018 | duvelisib -0.014 | gandotinib -0.013 | tozasertib -0.004 | doramapimod 0.013 | bafetinib 0.011 | [2] 0.003 | nilotinib -0.007 | [3] 0.017 | dasatinib 0.024 | [4] 0.003 | [5] -0.015 | quisinostat 0.027 | tipifarnib -0.006 | [6] -0.011 | [7] -0.006 | [8] 0.004

TBC1D7 (UniProt Q9P0N9)
inactive: lapatinib -0.118 | pictilisib -0.044 | crizotinib -0.056 | [1] -0.181 | duvelisib -0.013 | gandotinib 0.043 | tozasertib 0.049 | doramapimod 0.007 | bafetinib -0.004 | [2] 0.109 | nilotinib 0.043 | [3] -0.12 | dasatinib -0.069 | [4] -0.1 | [5] 0.011 | quisinostat -0.022 | tipifarnib 0.05 | [6] 0.026 | [7] 0.054 | [8] 0.006

TBCB (UniProt Q99426)
inactive: lapatinib 0.001 | pictilisib 0.009 | crizotinib -0.009 | [1] -0.098 | duvelisib 0.03 | gandotinib 0.022 | tozasertib 0.023 | doramapimod 0.008 | bafetinib 0.021 | [2] 0.031 | nilotinib 0.099 | [3] -0.045 | dasatinib 0.014 | [4] 0.04 | [5] 0.018 | quisinostat -0.045 | tipifarnib 0.005 | [6] 0.005 | [7] 0.024 | [8] 0.004

TFB2M (UniProt Q9H5Q4)
inactive: lapatinib -0.018 | pictilisib 0.005 | crizotinib -0.042 | [1] -0.008 | duvelisib -0.034 | gandotinib -0.193 | tozasertib 0.025 | doramapimod -0.002 | bafetinib 0.303 | [2] 0.017 | nilotinib -0.012 | [3] -0.024 | dasatinib -0.028 | [4] -0.007 | [5] -0.002 | quisinostat 0.037 | tipifarnib -0.003 | [6] 0.019 | [7] 0.039 | [8] 0.002

TARBP2 (UniProt Q15633)
inactive: lapatinib 0.035 | pictilisib -0.098 | crizotinib -0.092 | [1] 0.001 | duvelisib 0.07 | gandotinib -0.08 | tozasertib -0.057 | doramapimod 0.028 | bafetinib -0.028 | [2] 0.022 | nilotinib 0.003 | [3] 0.019 | dasatinib -0.038 | [4] 0.005 | [5] -0.056 | quisinostat -0.106 | tipifarnib -0.067 | [6] 0.065 | [7] -0.029 | [8] 0.056

TCEA1 (UniProt P23193)
inactive: lapatinib 0.022 | pictilisib 0.008 | crizotinib 0.056 | [1] 0.136 | duvelisib 0.024 | gandotinib -0.052 | tozasertib 0.028 | doramapimod -0.002 | bafetinib 0.09 | [2] -0.128 | nilotinib -0.004 | [3] 0.021 | dasatinib 0.022 | [4] 0.043 | [5] -0.021 | quisinostat 0.058 | tipifarnib 0 | [6] -0.028 | [7] -0.019 | [8] 0.002

TDRD7 (UniProt Q8NHU6)
inactive: lapatinib 0.014 | pictilisib -0.039 | crizotinib -0.022 | [1] -0.115 | duvelisib -0.032 | gandotinib 0.015 | tozasertib 0.07 | doramapimod -0.023 | bafetinib -0.017 | [2] 0.059 | nilotinib -0.005 | [3] -0.038 | dasatinib 0.006 | [4] -0.034 | [5] -0.013 | quisinostat -0.062 | tipifarnib -0.019 | [6] 0.081 | [7] 0.002 | [8] 0.013

TBCD (UniProt Q9BTW9)
inactive: lapatinib -0.014 | pictilisib -0.03 | crizotinib -0.052 | [1] -0.079 | duvelisib 0.006 | gandotinib 0.002 | tozasertib 0.002 | doramapimod 0.021 | bafetinib -0.034 | [2] 0.066 | nilotinib 0.008 | [3] -0.029 | dasatinib -0.045 | [4] 0.013 | [5] 0.015 | quisinostat -0.053 | tipifarnib 0.001 | [6] 0.023 | [7] 0.006 | [8] -0.023

TBL1X (UniProt O60907)
inactive: lapatinib -0.011 | pictilisib -0.047 | crizotinib 0.085 | [1] -0.016 | duvelisib -0.032 | gandotinib 0.05 | tozasertib 0.004 | doramapimod 0.027 | bafetinib -0.035 | [2] 0.036 | nilotinib 0.012 | [3] 0.026 | dasatinib -0.006 | [4] -0.012 | [5] 0.036 | quisinostat 0.004 | tipifarnib 0.013 | [6] -0.003 | [7] 0.015 | [8] 0.056

TBL2 (UniProt Q9Y4P3)
inactive: lapatinib -0.025 | pictilisib -0.002 | crizotinib -0.007 | [1] -0.068 | duvelisib 0.014 | gandotinib -0.053 | tozasertib 0.063 | doramapimod 0.032 | bafetinib -0.013 | [2] 0.055 | nilotinib -0.025 | [3] -0.043 | dasatinib -0.008 | [4] -0.004 | [5] 0.014 | quisinostat -0.031 | tipifarnib -0.06 | [6] -0.007 | [7] 0.003 | [8] -0.037

2 successive entries out of the list so far:
TDRD7 (UniProt Q8NHU6)
inactive: lapatinib 0.014 | pictilisib -0.039 | crizotinib -0.022 | [1] -0.115 | duvelisib -0.032 | gandotinib 0.015 | tozasertib 0.07 | doramapimod -0.023 | bafetinib -0.017 | [2] 0.059 | nilotinib -0.005 | [3] -0.038 | dasatinib 0.006 | [4] -0.034 | [5] -0.013 | quisinostat -0.062 | tipifarnib -0.019 | [6] 0.081 | [7] 0.002 | [8] 0.013

TBCD (UniProt Q9BTW9)
inactive: lapatinib -0.014 | pictilisib -0.03 | crizotinib -0.052 | [1] -0.079 | duvelisib 0.006 | gandotinib 0.002 | tozasertib 0.002 | doramapimod 0.021 | bafetinib -0.034 | [2] 0.066 | nilotinib 0.008 | [3] -0.029 | dasatinib -0.045 | [4] 0.013 | [5] 0.015 | quisinostat -0.053 | tipifarnib 0.001 | [6] 0.023 | [7] 0.006 | [8] -0.023
